Experimental data: the supplement of paper PMC3334620
Over roughly 33,000 sequences, “E-score (-0.5 to 0.5)” has its median near -8e-05; the highest 2% begin near 0.23. This is one part of the list.

What follows are sequences tested against T1, Nrg2 (UniProt P38082) (assay: PBM E-score (8-mer binding enrichment) (E-score (-0.5 to 0.5)); higher = stronger / more preferred TF binding). Details: protein concentration: 100 nM; construct: GST-full length.
T1 sequence: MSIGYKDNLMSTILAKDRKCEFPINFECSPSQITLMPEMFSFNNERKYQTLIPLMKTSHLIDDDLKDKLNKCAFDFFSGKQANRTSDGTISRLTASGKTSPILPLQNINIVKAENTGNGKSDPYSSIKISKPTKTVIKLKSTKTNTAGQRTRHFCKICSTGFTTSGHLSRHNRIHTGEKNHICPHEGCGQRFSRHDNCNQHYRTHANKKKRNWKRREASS
Summary of the method: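 GST-tagged yeast TFs (full-length or DNA-binding domain) were made by PURExpress in vitro transcription/translation and applied at about 100-200 nM to universal all-10-mer Agilent arrays. The arrays were made double-stranded by primer extension, on fresh or once-stripped slides. Bound protein was detected with fluorescent anti-GST, and scans were normalised with masliner. Each ungapped eight-base word, pooled with its reverse complement, received an E-score (modified Wilcoxon-Mann-Whitney statistic) from the Universal PBM Analysis Suite.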
For GATCCTAC, the “PBM E-score” value was 0.194. CAAAGTGC was tested, and the “PBM E-score” value was -0.052. For AGGTGTAA, the “PBM E-score” value was 0.0854. For CGCTGGTC, the “PBM E-score” value was -0.159. For ATCTCTGG, the “PBM E-score” value was -0.118. CCAGACAG was tested, and the “PBM E-score” value was -0.00394. TGGTGACA was tested, and the “PBM E-score” value was -0.0667. In the case of ATCGCGAT, the “PBM E-score” value is reported as 0.271. For CCTGTTAG, the “PBM E-score” value was -0.0527. For ACTCGTAA, the “PBM E-score” value was 0.146. With ATCTGGCG the “PBM E-score” value was -0.0555. For CCAACAGC, the “PBM E-score” value was 0.0541. GAGGCGGA was tested, and the “PBM E-score” value was -0.231. For AAGTACCC, the “PBM E-score” value was 0.0733. With CATATATC the “PBM E-score” value was 0.0914. In the case of ATGCTGGA, the “PBM E-score” value is reported as 0.02. For AGACAAAA, the “PBM E-score” value was -0.00285. With GCTCCTCC the “PBM E-score” value was -0.27. In the case of CACCGCAA, the “PBM E-score” value is reported as 0.233. With AAGTGACA the “PBM E-score” value was 0.145. GCAGCGGA was tested, and the “PBM E-score” value was 0.0428. In the case of GCACTCGC, the “PBM E-score” value is reported as -0.0381. For ACTTAGCA, the “PBM E-score” value was -0.104. With CCACCTCA the “PBM E-score” value was 0.117. For AATCTCAA, the “PBM E-score” value was 0.124. AACACGAC was tested, and the “PBM E-score” value was 0.0492. For GGTGTTAC, the “PBM E-score” value was -0.204. In the case of GAGCTTCC, the “PBM E-score” value is reported as 0.108. In the case of CATCCATA, the “PBM E-score” value is reported as -0.0199. For GGGTGTGA, the “PBM E-score” value was -0.181. For CCTCCGCA, the “PBM E-score” value was -0.0432. For GCATTGAC, the “PBM E-score” value was -0.171. For ACAATCGG, the “PBM E-score” value was 0.0611. CACAGGAA was tested, and the “PBM E-score” value was 0.0234. For TACCCATA, the “PBM E-score” value was -0.12. For GCTAGCAC, the “PBM E-score” value was -0.0851. With AGATAGCC the “PBM E-score” value was -0.156. For CCCGACGC, the “PBM E-score” value was -0.106. For ATCTTCTG, the “PBM E-score” value was -0.0488. In the case of CGCAGACC, the “PBM E-score” value is reported as -0.233. With CGGCCCTC the “PBM E-score” value was -0.257. With GGGATCAC the “PBM E-score” value was -0.0306. AGTAACGG was tested, and the “PBM E-score” value was 0.0195. With AGGAGTAT the “PBM E-score” value was -0.0395. With CCGATAGC the “PBM E-score” value was -0.163. For GACCTGGC, the “PBM E-score” value was 0.073. For GGGATAGA, the “PBM E-score” value was -0.135. For GATGTGCC, the “PBM E-score” value was -0.154. With AACATGGA the “PBM E-score” value was 0.0241. AAGAAGAC was tested, and the “PBM E-score” value was -0.0746. With GGACCGAC the “PBM E-score” value was 0.0348. CACAGTGG was tested, and the “PBM E-score” value was -0.0358. For CCCGATCA, the “PBM E-score” value was -0.189. In the case of AACCCACA, the “PBM E-score” value is reported as 0.0347. With CAGAATTC the “PBM E-score” value was -0.0147. ATATTCAC was tested, and the “PBM E-score” value was 0.137. In the case of GGCGTACA, the “PBM E-score” value is reported as -0.244. For ACGACTTC, the “PBM E-score” value was -0.161. In the case of CCACGTCC, the “PBM E-score” value is reported as -0.123. In the case of CACTTATC, the “PBM E-score” value is reported as 0.0997. For CAATTTAA, the “PBM E-score” value was 0.132. For ACTGGTAG, the “PBM E-score” value was -0.0759. With CTGGGCAA the “PBM E-score” value was 0.0385. In the case of CAAGGGGC, the “PBM E-score” value is reported as 0.0751. ACACAATG was tested, and the “PBM E-score” value was 0.0758. With TAATGACA the “PBM E-score” value was 0.123. ACATCCGA was tested, and the “PBM E-score” value was 0.0466. With AAGACGCG the “PBM E-score” value was 0.0059. For CGGTTCTC, the “PBM E-score” value was -0.197. CCGCTACG was tested, and the “PBM E-score” value was -0.191. With ACCTGTTG the “PBM E-score” value was 0.024. With GAGGCACC the “PBM E-score” value was -0.264. In the case of CGATCGCG, the “PBM E-score” value is reported as 0.149. With CGTGTTGC the “PBM E-score” value was 0.0528. With AGTAACTG the “PBM E-score” value was -0.0237. With AGCAAACT the “PBM E-score” value was 0.0682. ACGGACAA was tested, and the “PBM E-score” value was 0.233. With AAAATAGC the “PBM E-score” value was -0.146. ACTTTTTC was tested, and the “PBM E-score” value was -0.0528. CAGCCTCA was tested, and the “PBM E-score” value was -0.0113. With AAAACTGG the “PBM E-score” value was 0.124. ACCTCGCC was tested, and the “PBM E-score” value was -0.101. With CGAAGCAC the “PBM E-score” value was -0.00391. TATACATA was tested, and the “PBM E-score” value was 0.0439. With ACAGCACT the “PBM E-score” value was 0.0609. CAATGTTA was tested, and the “PBM E-score” value was -0.111. For CGGGACAC, the “PBM E-score” value was 0.0733. With GCTTTCTA the “PBM E-score” value was 0.0576. AACTAATT was tested, and the “PBM E-score” value was 0.19. In the case of CGTCGTTA, the “PBM E-score” value is reported as -0.136. For CACACAAG, the “PBM E-score” value was 0.0622. With GGCGACCA the “PBM E-score” value was -0.146. For GTAGAACA, the “PBM E-score” value was -0.195. In the case of GGCTGTTA, the “PBM E-score” value is reported as -0.00387.
